Measured values: patent publication US20250361546A1, “SCREENING METHODS FOR RNA-CONTROLLING COMPOUNDS” (Veritas In Silico Inc., priority 2018, published 2025)
For at least one compound, name, drawing or mass did not settle the structure.

Key:
Assay type in all cases: binding
MGA-N_FAM/BHQ1 = assay: FRET probe Tm measurement, single probe and 4-probe mixture (Example 5); conditions: 100 μM compound
Description: • FRET probe with FAM at the 5′ end and BHQ1 modification at the 3′ end
(§1) The final levels were 50 nM RNA, 20 mM phosphate buffer (pH 6 5), 50 mM KCl, 1% DMSO, 0.1 μg/μl Bovine Serum Albumin (Takara Bio) or 0.05%-0.1% Tween-20, or 0.05%-0.1% Triton X-100 per probe. In addition, 10 μl solutions were mixed to make 100 μM compound if small compounds were included and incubated at room temperature for 10 minutes.
(§2) The solutions were dispensed into a 384 well plate, and the plate was kept in a qPCR machine (manufactured by CFX 384 Touch (Bio-Rad Co., Ltd.) for 15 seconds after the temperature was raised to 95° C., which was rapidly cooled to 4° C. and kept for 2 minutes, and then kept at 25° C. for 5 minutes. Then, it was raised to over 95° C. about 40 minutes, and the fluorescence output was measured every 1° C. in 10 seconds. For numerical differentiation of the fluorescence output, a total of seven points from the measured temperature T to plus or minus 3° C. were approximated to a straight line by the least squares method, and the slope was defined as the slope (D1) at the point of the measured temperature T. Similarly, the value of D1 was again subjected to numerical differentiation in the same manner, and the slope (D2) at the point of the measured temperature T was obtained. Here, in parts where the D1 value was 10 or more, the measured temperature T_D1MAX was obtained with D1 at maximum. A total of seven points from this measured temperature T_D1MAX to plus and minus 3° C. were used to calculate the value of T_INF at Y=0 by setting X as T and Y as D2 when the seven points were actually approximated to the line by least squares, and this was set as the Tm value. In addition, the difference (Tm−Tm_NO) in the Tm value (Tm_NO) between wells containing the compound and wells without it was acquired as ΔTm.
(§3) This work was carried out for single-probe wells and four-probe wells, respectively, to obtain the Tm and ΔTm values shown in Table 6 below.

Survivin-hetero probe = assay: FRET probe Tm measurement with kanamycin (Example 4), hetero type; conditions: 100 μM compound, 50 nM RNA, pH 7.0
Survivin-native probe = assay: FRET probe Tm measurement with kanamycin (Example 4), Native type; conditions: 100 μM compound, 50 nM RNA, pH 7.0
Survivin-native+ probe = assay: FRET probe Tm measurement with kanamycin (Example 4), Native+ type; conditions: 100 μM compound, 50 nM RNA, pH 7.0
A-4-G_Cy5/BHQ2 = assay: FRET probe Tm measurement, single probe and 4-probe mixture (Example 5); conditions: 100 μM compound
Description: (§4) Four FRET probes with fluorescent modifications corresponding to four wavelengths detectable by a measuring device (CFX384 Touch manufactured by Bio-Rad) were prepared. • FRET probe with Cy5 at the 5′ end and BHQ2 modification at the 3′ end
as §1, §2, §3

[1] = test system: A-4-G_Cy5/BHQ2, MGA-N_FAM/BHQ1, FMNA_Alexa532/BHQ1, TAR21-G3_Texas Red/BHQ2; assay: FRET probe Tm measurement, summary over four probes (Example 5); conditions: both single probes and mixed probes; 100 μM compound
Description: as §4
as §1, with “minutes. […]” for “minutes.”

FMNA_Alexa532/BHQ1 = assay: FRET probe Tm measurement, single probe and 4-probe mixture (Example 5); conditions: 100 μM compound
Description: • FRET probe with HEX-equivalent Alexa 532 at the 5′ end and BHQ1 modification at the 3′ end
as §1, §2, §3

TAR21-G3_Texas Red/BHQ2 = assay: as above; conditions: 100 μM compound
Description: • FRET probe with Texas Red at the 5′ end and BHQ2 modification at the 3′ end
as §1, §2, §3

[2] = 4-probe mixture, FAM detection, 50 nM RNA per probe
[3] = 4-probe mixture, Cy5 detection, 50 nM RNA per probe
[4] = 4-probe mixture, HEX detection, 50 nM RNA per probe
[5] = 4-probe mixture, Texas Red detection, 50 nM RNA per probe

## NC[C@H]1O[C@H](O[C@H]2[C@H](O)[C@@H](O[C@H]3O[C@H](CO)[C@@H](O)[C@H](N)[C@H]3O)[C@H](N)C[C@@H]2N)[C@H](O)[C@@H](O)[C@@H]1O [kanamycin]
MGA-N_FAM/BHQ1; [2]
  Tm (° C.) with compound: 80.22 °C
  ΔTm (° C.): 6.11 °C
MGA-N_FAM/BHQ1; Single probe, 50 nM RNA
  Tm (° C.) with compound: 80.33 °C
  ΔTm (° C.): 6.62 °C
Survivin-hetero probe; Alexa Fluor 647 / BHQ2 label
  Tm (with kanamycin): 60.8 °C
  Tm increase: 9.0 °C
Survivin-hetero probe; Cy5 / BHQ2 label
  Tm (with kanamycin): 60.3 °C
  Tm increase: 8.2 °C
Survivin-native probe; Alexa Fluor 647 / BHQ2 label
  Tm (with kanamycin): 81.1 °C
  Tm increase: 3.0 °C
Survivin-native probe; Cy5 / BHQ2 label
  Tm (with kanamycin): 80.0 °C
  Tm increase: 2.4 °C
Survivin-native+ probe; 6-FAM / BHQ1 label
  Tm (with kanamycin): 78.9 °C
  Tm increase: 3.5 °C
Survivin-native+ probe; Alexa Fluor 647 / BHQ2 label
  Tm (with kanamycin): 78.5 °C
  Tm increase: 3.7 °C
Survivin-native+ probe; Cy5 / BHQ2 label
  Tm (with kanamycin): 80.4 °C
  Tm increase: 3.1 °C
A-4-G_Cy5/BHQ2; [3]
  Tm (° C.) with compound: 71.78 °C
  ΔTm (° C.): 4.28 °C
A-4-G_Cy5/BHQ2; Single probe, 50 nM RNA
  Tm (° C.) with compound: 71.66 °C
  ΔTm (° C.): 4.29 °C
[1]
  Tm increase (in words): increase in Tm was obtained at all wavelengths
FMNA_Alexa532/BHQ1; [4]
  Tm (° C.) with compound: 82.23 °C
  ΔTm (° C.): 4.15 °C
FMNA_Alexa532/BHQ1; Single probe, 50 nM RNA
  Tm (° C.) with compound: 82.17 °C
  ΔTm (° C.): 4.23 °C
TAR21-G3_Texas Red/BHQ2; [5]
  Tm (° C.) with compound: 89.95 °C
  ΔTm (° C.): 4.18 °C
TAR21-G3_Texas Red/BHQ2; Single probe, 50 nM RNA
  Tm (° C.) with compound: 90.02 °C
  ΔTm (° C.): 4.30 °C
